Results deposited as PubChem BioAssay AID1159584 (Peter MacCallum Cancer Centre, 2016)

Assay: 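Knock-downs that harm CDH1-null cells more than parental MCF10A cells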 (primary screen)
Cell system: human MCF10A breast epithelial cells, parental and CDH1-null
Reagents: siRNA against human genes
Read-out: 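ATP luminescence (CellTiter-Glo) viability per line relative to mean mock wells over all plates, and the ratio of CDH1-null to parental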
Direction: CDH1-null / parental viability ratio: higher = CDH1-null cells survive relatively better than parental; CDH1-null viability vs mock: higher = more viable CDH1-null cells
In all, the deposit lists about 18,000 reagents; shown is an unselected part. Not all columns of the deposit are shown. No sequences are given here. Not given: the amount of reagent, the time to read-out.

| gene knocked down | CDH1-null / parental viability ratio | CDH1-null viability vs mock (fraction of mock) |
| --- | --- | --- |
| ASAP2 | 0.96 | 1.01 |
| GAB4 | 1.08 | 0.83 |
| OTOF | 1.21 | 0.8 |
| SYMPK | 1.25 | 0.91 |
| ANKRD10 | 0.94 | 0.66 |
| KRTAP19-5 | 0.79 | 0.55 |
| PNLIPRP1 | 0.93 | 0.82 |
| TNRC6C | 0.74 | 0.49 |
| TRAF1 | 1.19 | 0.62 |
| NBR1 | 1.1 | 0.66 |
| SH3BP2 | 1.32 | 1.19 |
| COPS7B | 1.28 | 0.74 |
| PPP2R2B | 1.2 | 0.84 |
| SPIRE2 | 1.14 | 0.89 |
| ACP7 | 0.81 | 0.63 |
| CSF2RB | 1.19 | 0.94 |
| ASTL | 0.96 | 0.88 |
| TOM1 | 0.81 | 0.57 |
| HDAC6 | 0.86 | 0.78 |
| SLC25A14 | 1.26 | 0.63 |
| WWP1 | 1.06 | 0.85 |
| NOC2L | 0.77 | 0.56 |
| ONECUT3 | 1.3 | 0.56 |
| LST1 | 0.95 | 0.94 |
| MARCO | 0.93 | 0.84 |
| AP5Z1 | 1.21 | 0.92 |
| KCNJ5 | 1.26 | 1.01 |
| STRA8 | 1.19 | 0.44 |
| C4orf50 | 0.9 | 0.36 |
| CGB2 | 0.98 | 0.78 |
| SESTD1 | 1.04 | 0.96 |
| DDHD2 | 1.35 | 0.96 |
| L1TD1 | 0.9 | 0.7 |
| FBXL12 | 0.96 | 0.88 |
| PALMD | 1 | 0.81 |
| ABCA12 | 0.84 | 0.74 |
| WDR27 | 0.97 | 0.59 |
| P2RY1 | 0.77 | 0.77 |
| MCM5 | 1.13 | 0.78 |
| MYBPHL | 0.82 | 0.61 |
| CD44 | 1.15 | 0.94 |
| GANAB | 1.1 | 0.86 |
| POMC | 1.09 | 0.97 |
| ADAM17 | 0.98 | 0.82 |
| SUN5 | 0.71 | 0.24 |
| COA7 | 0.79 | 0.75 |
| METTL25 | 1.05 | 1.07 |
| NPRL3 | 1.14 | 0.72 |
| P2RY13 | 0.7 | 0.74 |
| PPP1R18 | 1.01 | 0.78 |
| PRKD1 | 0.99 | 0.96 |
| EIF2S2 | 1.15 | 0.46 |
| EXOSC7 | 1.11 | 0.84 |
| ZNF805 | 1.08 | 0.8 |
| MED1 | 1.02 | 0.92 |
| FLRT1 | 1.24 | 0.82 |
| RNASE2 | 1 | 1.02 |
| DEFB128 | 1.01 | 0.81 |
| CAPZA1 | 1.06 | 0.83 |
| IL10RB | 1.02 | 1.06 |
| COL12A1 | 0.84 | 0.86 |
| ACRBP | 0.97 | 0.64 |
| ZNF236 | 1.67 | 0.82 |
| USP22 | 0.97 | 0.74 |
| DTWD1 | 0.95 | 0.72 |
| RFC1 | 0.76 | 0.9 |
| RAD51AP1 | 1.1 | 1 |
| DSC2 | 1.03 | 0.89 |

No new results follow: 3 of the entries above.
| gene knocked down | CDH1-null / parental viability ratio | CDH1-null viability vs mock (fraction of mock) |
| --- | --- | --- |
| ABCA12 | 0.84 | 0.74 |
| WDR27 | 0.97 | 0.59 |
| P2RY1 | 0.77 | 0.77 |
